Measured data: PubChem BioAssay AID1259308 (NCATS, 2017)
Purpose: 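Genes whose loss raises luciferase production in HEK293 cells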 (primary screen). System: human HEK293 embryonic kidney cells stably expressing firefly luciferase (HEK-CMV-Luc2-Hygro). Reagents: single siRNA against human genes, 0.8 pmol siRNA per well. Timing: 72 h. Measured: 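Luciferase light (ONE-Glo) measured on one replicate plate set and viability (CellTiter-Glo) on the other, scaled to a negative control siRNA, with robust z-scores and luciferase per cell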. Reading the numbers: total luciferase, z-score and total luciferase, % of control: higher = more reporter protein produced; luciferase per cell, z-score: higher = more reporter output per viable cell; viable cells, % of control: higher = more viable cells. Rule for the call: 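Active when the median/MAD z-score for overall luciferase is greater than 3; a gene was taken forward for validation with new siRNAs if at least two of its three siRNAs passed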. Calls: active = raised luciferase; inactive = no rise.
In all, the deposit lists about 59,000 reagents; below is an unselected part. Over the whole deposit, about 1,510 (2.6%) are marked active. 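Calls use total luciferase alone and ignore viability, so some active siRNAs may act by altering cell number.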 Entries without a mark were called inactive. The numbers tell different reagents against one gene apart. Reagent sequences are not shown.

| gene symbol | siRNA no. | total luciferase, z-score | total luciferase, % of control | luciferase per cell, z-score | viable cells, % of control |
| --- | --- | --- | --- | --- | --- |
| CLCA3P | 1 | -0.279 | 76.3 | 0.102 | 83 |
| CLCA3P | 2 | 1.92 | 120 | 1.54 | 89.5 |
| CLCA3P | 3 | 1.31 | 108 | -0.177 | 126 |
| KCNK1 | 1 | -1.7 | 48 | -2.27 | 97.6 |
| KCNK1 | 2 | 0.685 | 95.5 | 1.01 | 81.9 |
| KCNK1 | 3 | 1.5 | 112 | 0.69 | 104 |
| PTK7 | 1 | 0.451 | 90.9 | 0.559 | 87.6 |
| PTK7 | 2 | 1.17 | 105 | 0.605 | 100 |
| PTK7 | 3 | 4.27 (active) | 167 | 3.19 | 80.4 |
| CSF3 | 1 | -0.398 | 74 | -0.0426 | 83.6 |
| CSF3 | 2 | -0.64 | 69.2 | 1.02 | 59.1 |
| CSF3 | 3 | -0.152 | 78.9 | 0.0498 | 87 |
| C9orf43 | 1 | -0.531 | 71.3 | -0.601 | 93.4 |
| C9orf43 | 2 | 0.941 | 101 | 0.673 | 94.1 |
| C9orf43 | 3 | -0.585 | 70.3 | -0.833 | 97.8 |
| FIBCD1 | 1 | 0.335 | 88.6 | 0.82 | 79.7 |
| FIBCD1 | 2 | 0.14 | 84.7 | -0.108 | 97.3 |
| FIBCD1 | 3 | -0.163 | 78.6 | -0.195 | 92.5 |
| HAVCR1 | 1 | 0.482 | 91.5 | 1.19 | 74.8 |
| HAVCR1 | 2 | 0.189 | 85.6 | -0.018 | 96.2 |
| HAVCR1 | 3 | 0.259 | 87 | 0.0222 | 96.7 |
| RAB5IF | 1 | -0.141 | 79.1 | 0.101 | 86.1 |
| RAB5IF | 2 | -0.318 | 75.6 | -0.717 | 102 |
| RAB5IF | 3 | -0.27 | 76.5 | -0.185 | 89.8 |
| LPAR2 | 1 | -1.28 | 56.4 | -0.764 | 77.1 |
| LPAR2 | 2 | 0.112 | 84.1 | 0.234 | 88.4 |
| LPAR2 | 3 | -0.0952 | 80 | -0.819 | 111 |
| RNF148 | 1 | -1.34 | 55.3 | -1.21 | 85.1 |
| RNF148 | 2 | -1.21 | 57.8 | -1.74 | 102 |
| RNF148 | 3 | -1.18 | 58.3 | -1.23 | 90.2 |
| RBBP8NL | 1 | 0.834 | 98.5 | 0.786 | 89.5 |
| RBBP8NL | 2 | 0.829 | 98.4 | 0.559 | 94.9 |
| RBBP8NL | 3 | -0.481 | 72.3 | -0.744 | 98.3 |
| CHCHD2P10 | 1 | 4.5 (active) | 171 | 3.37 | 78.9 |
| CHCHD2P10 | 2 | 2.09 | 123 | 1.94 | 82.8 |
| CHCHD2P10 | 3 | -0.0426 | 81 | -0.331 | 98.8 |
| SLC38A7 | 1 | -0.299 | 75.9 | -0.192 | 89.3 |
| SLC38A7 | 2 | 1.39 | 110 | 1.11 | 91.4 |
| SLC38A7 | 3 | -0.121 | 79.5 | -0.333 | 97 |
| PLPPR1 | 1 | 1.08 | 103 | 1.94 | 69.3 |
| PLPPR1 | 2 | 0.77 | 97.2 | 0.7 | 90.3 |
| PLPPR1 | 3 | -1.11 | 59.7 | -1.1 | 89.1 |
| COCH | 1 | 1.96 | 121 | 1.92 | 81.4 |
| COCH | 2 | 1.41 | 110 | 0.183 | 117 |
| COCH | 3 | -0.92 | 63.6 | -1.08 | 94.5 |
| CEP83 | 1 | 0.146 | 84.8 | -0.051 | 96 |
| CEP83 | 2 | -1.38 | 54.4 | -0.736 | 73.8 |
| CEP83 | 3 | 0.245 | 86.8 | -0.733 | 118 |
| TNFAIP8 | 1 | -0.195 | 78 | -0.84 | 109 |
| TNFAIP8 | 2 | -0.123 | 79.4 | -0.662 | 106 |
| TNFAIP8 | 3 | 0.347 | 88.8 | 0.0191 | 98.7 |
| MBTD1 | 1 | 2.31 | 128 | 1.69 | 91.5 |
| MBTD1 | 2 | -0.0623 | 80.6 | 0.146 | 86.7 |
| MBTD1 | 3 | 0.447 | 90.8 | 0.463 | 89.8 |
| SPMIP11 | 1 | 1.67 | 115 | 1.69 | 82.5 |
| SPMIP11 | 2 | -0.747 | 67 | 0.856 | 59.8 |
| SPMIP11 | 3 | 1.26 | 107 | 1.36 | 83.6 |

Entries listed above marked active:
| gene symbol | siRNA no. | total luciferase, z-score | total luciferase, % of control | luciferase per cell, z-score | viable cells, % of control |
| --- | --- | --- | --- | --- | --- |
| PTK7 | 3 | 4.27 (active) | 167 | 3.19 | 80.4 |
| CHCHD2P10 | 1 | 4.5 (active) | 171 | 3.37 | 78.9 |
